Results on 61 compounds are retold here after PubChem BioAssay AID2002 (Broad Institute, 2009).

Structures are written as SMILES. The list shows a part of the results. Results with a measured potency or affinity are listed apart. The source made no clear call on entries shown without one.

The nature of this assay: PubChem AID 2002. The following applies: H4 neuroglioma luciferase reporter, luminescence activation; at 12 µM (top of the series) unless noted.
As for `COC(=O)CCN1CCc2cc(N=Nc3ccc([N+](=O)[O-])cc3)ccc21`, the activation came out at 37.1%.
As to `O=C(CCl)N(c1ccccc1)C1CCS(=O)(=O)C1` (stereo unspecified), the activation came to 3%.
As for `N#C/C(=C\c1ccc(N2CCCCC2)o1)C(=O)Nc1cccc(Br)c1`, the activation worked out at 178%.
The same measure for `Cc1cccc(NC(=O)Nc2ccc3c(c2)OCO3)n1`: 152%.
Turning to `c1ccc(N2CCN(c3nc4cc5c(cc4s3)OCO5)CC2)cc1`, the activation was determined as 178% [at 6 µM].
The same measure for `CCOC(=O)c1ccc(-c2ccc(/C=N/NC(=O)c3cncc(Br)c3)o2)cc1`: 82.9%.
Turning to `CCc1cc2c(=O)n3c(nc2s1)-c1[nH]c2ccc(OC)cc2c1CC3`, the activation was found to be 99.6%.
With `Nc1c(C(=O)Nc2ccccc2Cl)nnn1-c1ccc2c(c1)OCCO2`, the activation was 103%.
`O=c1c2c3c(sc2nc2n1N=C(c1cccs1)CS2)CCCC3`: the activation was 108%.
For `Cc1cc(C)c(NN=c2c(=O)c3ccccc3c2=O)c(C)c1`, the activation turned out to be 100%.
The same measure for `COC(=O)C1C(=O)c2c([nH]c(C(=O)OC3CCCCC3)c2C)CC1C` (stereo unspecified): 119%.
The value for `CC(C)(C)c1csc(NC2=NS(=O)(=O)c3ccccc32)n1` was 133%.
The value for `Cn1c(-c2ccc(F)cc2)cnc1SCC(=O)Nc1ccccc1N1CCOCC1` was 81.9%; that for `O=[N+]([O-])C(/C=C(\Cl)[N+](=O)[O-])=C(N1CCCCC1)N1CCCCC1` was 49.2% [at 6 µM].
With `C=CCn1c(C)nc2c(sc3nc4c(cc32)COC(C)(C)C4)c1=O`, the activation worked out at 87.9%.
The value for `COc1ccc(C2CC(c3ccc4ccccc4c3)=NN2C(=O)COC(=O)C2CCC(=O)N2)cc1` (stereo unspecified) was 286% [at 6 µM]; that for `Cn1c(-c2nnn(-c3ccc(F)cc3)n2)cc2ccccc21` was 116%; that for `CCN1C(=S)SC(=O)C1=C1C=C(C)N(Cc2ccco2)C(C)=C1` was 83.2%.
For the compound `COc1ccc(NC(=O)c2cc3ccccc3o/c2=N\NS(=O)(=O)c2ccc(C)cc2)cc1`, the activation came out at 61.5%.
Take `Cc1ccc(CNC(=O)/C=C/c2cccs2)cc1`: the activation amounted to 88.6%.
With `COc1ccc(C(=O)Nc2ccccc2C(=O)N/N=C/c2cccc3ccccc23)cc1`, the activation was 55.8%.
With `N#C/C(=N\Nc1ccccc1)C(=N)N1CCCCCC1`, the activation is 103%.
In the case of `Clc1ccccc1/C=N/Nc1cc(N2CCOCC2)ncn1`, the activation was 150%.
As for `Nc1c(C(=O)c2ccccc2)oc2ccc(Br)cc12`, the activation stood at 150%.
The same measure for `O=C(N=c1nc2ccccn2s1)c1ccccc1`: 121%; for `N#CC(C#N)=c1ccc2c(c1)NC1(CCCCC1)N=2`: 58.3% [at 6 µM]; for `O=C1N=C(N2CCOCC2)S/C1=C1\C(=O)N(Cc2ccccc2)c2ccccc21`: 112%.
Take `O=C(Nc1ccc(-c2cn3ccccc3n2)cc1)c1ccco1`: the activation amounted to 59.2%.
The same measure for `CC(C)(C)c1cc(NC(=O)Nc2ccccc2)no1`: 119%; for `O=C(O)c1ccc(N/N=C/c2ccc(-c3cc(Cl)ccc3Cl)o2)cc1`: 114%; for `Cc1ccnc(SCc2nc3ccccc3s2)n1`: 96.3%.
The value for `Oc1[nH]c2ccccc2c1C=Nc1ccc2c(c1)OCO2` was 135%.
The same measure for `CN(C)c1ccc(/C=N/n2ncc3ccccc32)cc1`: -35.1%; for `Cc1cccc(-c2cc3nc4c(c(N5CCOCC5)n3n2)CCCC4)c1`: 55.9% [at 3 µM].
For `Cc1ccccc1/C=C/c1nc2ccccc2c(=O)[nH]1`, the activation was determined as 76.5%.
The value for `Cc1cccc(COc2ccc(/C=N/NC(=O)c3nnn(-c4nonc4N)c3COc3ccc(F)cc3)cc2)c1` was 43.7%.
In the case of `c1ccc2c(c1)oc1c(Nc3ccc(CN4CCOCC4)cc3)ncnc12`, the activation was determined as 120% [at 3 µM].
The value for `CCCCOc1ncnc2c1[nH]c1ccc(OC)cc12` was 72.1%; that for `CCOC(=O)CSc1nc(-c2ccc3c(c2)OCO3)ccc1C#N` was 115%.
The value for `O=C(N/N=C\c1cccc(Cl)c1)c1n[nH]c2c1CCCC2` was 134%; that for `Cc1ccc(N=Cc2c(O)[nH]c3ccccc23)c([N+](=O)[O-])c1` was 95.7%; that for `COc1ccc(-c2cc(C(=O)Nc3cccc(Cl)c3)no2)cc1` was 154%.
Regarding `O=C(NC1CC1)c1cccc(Nc2ccc(-c3ccc4c(c3)OCCO4)nn2)c1`, the activation came out at 61.6%.
The same measure for `O=C(Nc1cccc(Cl)c1)c1ccc2c(=O)n3c(nc2c1)CCCCC3`: 98.3%; for `CC(C)c1ccc(/C=N/NC(=O)c2cccc(Cl)c2)cc1`: 122%.
Take `O=C(NC1CCCC1)c1cc(-c2cccs2)on1`: the activation amounted to 67.2%.
`Cc1ccc2cc(CCNC(=O)c3cccs3)c(=O)[nH]c2c1C`: the activation was 93.3%.
The same measure for `COc1cccc(-c2cn3nc(C)c(C)nc3n2)c1`: 130% [at 6 µM].
The value for `O=C(Nc1nc2ccsc2c(=O)s1)c1ccc(F)cc1` was 128%; that for `O=C(NCCC1=CCCCC1)NC12CC3CC(CC(C3)C1)C2` was 156%; that for `Cn1c(C(=O)Nc2ccc3c(c2)OCO3)cc2sccc21` was 120%.
The value for `CCN1C(=O)/C(=C/N2CCc3ccccc32)SC1=S` was 152% [at 6 µM]; that for `CCOC(=O)c1c(-c2ccccc2)cn2c(C)cc(C)nc12` was 178%.
Consider `Cc1ccc(Nc2nc3ccccc3[nH]2)nc1`, for which the activation was found to be 213% [at 6 µM].
The same measure for `N#Cc1c(NC(=O)C2CCCO2)sc2c1CCCCC2` (stereo unspecified): 154% [at 6 µM].
The value for `Nc1c(C(=O)Nc2ccc3c(c2)OCCO3)nnn1Cc1ccc(Br)cc1` was 131%; that for `Cc1cc(C(=O)CSc2nc3ccccc3o2)c(C)n1CC1CCCO1` (stereo unspecified) was 11.6%.
The value for `Cn1cccc1/C=C1\CCC/C(=C\c2cccn2C)C1=O` was 140%.
In the case of `COc1c(C)cccc1C(=O)Nc1ccc(N2CCOCC2)c(Cl)c1`, the activation worked out at 195% [at 6 µM].
The value for `Clc1ccc(-c2nsc(N3CCOCC3)n2)c(Cl)c1` was 16%.
The value for `Cc1ccc(N=Nc2c(C)[nH]n(C(N)=S)c2=O)cc1C` was 236%.
